Data from patent US20080044360A1.
These are yes or no findings as the source states them, for the method shown. Some binding calls cover weakened binding; strength is not graded here.

Chains of the proteins cited; added tags and fusions are not shown. Residues count along the entry.
UniProt P02458, residues 182-1241: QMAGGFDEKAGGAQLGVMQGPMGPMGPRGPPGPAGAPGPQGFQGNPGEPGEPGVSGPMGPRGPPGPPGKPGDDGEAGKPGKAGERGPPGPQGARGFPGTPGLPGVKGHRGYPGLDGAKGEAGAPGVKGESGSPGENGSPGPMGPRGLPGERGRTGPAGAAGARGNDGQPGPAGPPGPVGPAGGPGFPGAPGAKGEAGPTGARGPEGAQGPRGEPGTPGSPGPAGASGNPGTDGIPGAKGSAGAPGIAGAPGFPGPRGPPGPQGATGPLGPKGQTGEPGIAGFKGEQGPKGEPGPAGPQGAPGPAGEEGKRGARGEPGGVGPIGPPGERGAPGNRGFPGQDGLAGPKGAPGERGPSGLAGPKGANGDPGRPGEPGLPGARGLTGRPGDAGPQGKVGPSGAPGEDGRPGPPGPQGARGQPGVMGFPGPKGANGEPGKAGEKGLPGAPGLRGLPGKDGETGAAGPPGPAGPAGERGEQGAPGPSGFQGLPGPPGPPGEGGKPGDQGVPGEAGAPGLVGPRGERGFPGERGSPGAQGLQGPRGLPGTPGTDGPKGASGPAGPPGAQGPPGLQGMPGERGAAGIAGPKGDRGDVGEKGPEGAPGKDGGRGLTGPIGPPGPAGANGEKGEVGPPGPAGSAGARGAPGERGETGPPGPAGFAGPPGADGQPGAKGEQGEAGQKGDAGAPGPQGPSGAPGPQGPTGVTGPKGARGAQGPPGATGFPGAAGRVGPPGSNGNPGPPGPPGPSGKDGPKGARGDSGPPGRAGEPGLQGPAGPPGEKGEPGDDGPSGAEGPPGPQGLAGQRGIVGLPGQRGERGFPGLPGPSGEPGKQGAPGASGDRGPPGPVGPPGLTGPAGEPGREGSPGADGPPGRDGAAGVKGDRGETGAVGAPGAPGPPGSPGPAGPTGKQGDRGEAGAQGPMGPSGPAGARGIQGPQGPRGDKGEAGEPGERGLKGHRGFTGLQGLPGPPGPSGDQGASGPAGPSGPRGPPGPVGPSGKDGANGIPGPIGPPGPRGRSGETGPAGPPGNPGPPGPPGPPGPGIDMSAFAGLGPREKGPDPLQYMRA
UniProt P02461, residues 154-1221: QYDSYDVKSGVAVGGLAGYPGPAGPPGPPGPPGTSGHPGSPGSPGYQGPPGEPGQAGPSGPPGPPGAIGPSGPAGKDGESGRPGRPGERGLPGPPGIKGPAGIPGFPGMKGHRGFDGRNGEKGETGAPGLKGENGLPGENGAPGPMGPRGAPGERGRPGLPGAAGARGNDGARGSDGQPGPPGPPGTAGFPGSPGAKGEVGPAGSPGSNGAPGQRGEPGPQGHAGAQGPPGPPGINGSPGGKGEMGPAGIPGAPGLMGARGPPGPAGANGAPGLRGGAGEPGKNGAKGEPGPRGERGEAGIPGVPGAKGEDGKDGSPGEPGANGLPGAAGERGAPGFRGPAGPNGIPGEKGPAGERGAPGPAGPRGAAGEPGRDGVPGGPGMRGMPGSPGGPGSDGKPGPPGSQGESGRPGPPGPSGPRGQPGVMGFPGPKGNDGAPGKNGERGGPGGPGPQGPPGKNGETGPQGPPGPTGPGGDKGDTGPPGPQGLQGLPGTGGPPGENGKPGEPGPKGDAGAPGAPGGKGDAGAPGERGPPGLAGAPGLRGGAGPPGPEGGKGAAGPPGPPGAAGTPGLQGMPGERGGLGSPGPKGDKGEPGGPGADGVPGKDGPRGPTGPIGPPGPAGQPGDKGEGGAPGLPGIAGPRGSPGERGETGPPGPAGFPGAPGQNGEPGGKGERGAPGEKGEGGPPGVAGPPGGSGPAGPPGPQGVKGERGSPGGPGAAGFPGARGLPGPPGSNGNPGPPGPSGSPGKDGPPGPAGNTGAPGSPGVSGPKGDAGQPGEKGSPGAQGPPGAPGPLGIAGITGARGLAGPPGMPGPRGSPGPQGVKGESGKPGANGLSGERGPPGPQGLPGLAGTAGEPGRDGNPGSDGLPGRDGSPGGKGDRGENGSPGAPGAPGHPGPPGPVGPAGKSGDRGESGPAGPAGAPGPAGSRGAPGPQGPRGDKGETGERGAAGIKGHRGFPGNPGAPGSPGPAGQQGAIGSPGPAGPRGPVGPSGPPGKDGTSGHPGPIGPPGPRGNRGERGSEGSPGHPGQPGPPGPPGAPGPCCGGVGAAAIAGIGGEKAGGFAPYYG

Columns and labels:
[1] = target: Type II human collagen (human) (UniProt P02458); test: competition in the dried collagen assay
[2] = target: Type III human collagen (human) (UniProt P02461); test: competition in the dried collagen assay

- binding [1]: binds
- binding [2]: binds
Binder: KKWHCYTYFPHHYCVYG (N-terminal Gd^D; K(Gd^D) 1, 2) [Compound ID 1014]
